No constants are given. Whether binding was seen depends on the method and setting. Binding calls can cover weak binding; strength is not graded here. For some of these results: In cells and extracts the contact can be indirect. For some of these results: Sequences can lack the tags named with a protein.

Chains of the proteins cited; added tags and fusions are not shown. Lines headed by an entry give the natural chain unless they say otherwise; changes in a name come on top.
UniProt Q5VNK1: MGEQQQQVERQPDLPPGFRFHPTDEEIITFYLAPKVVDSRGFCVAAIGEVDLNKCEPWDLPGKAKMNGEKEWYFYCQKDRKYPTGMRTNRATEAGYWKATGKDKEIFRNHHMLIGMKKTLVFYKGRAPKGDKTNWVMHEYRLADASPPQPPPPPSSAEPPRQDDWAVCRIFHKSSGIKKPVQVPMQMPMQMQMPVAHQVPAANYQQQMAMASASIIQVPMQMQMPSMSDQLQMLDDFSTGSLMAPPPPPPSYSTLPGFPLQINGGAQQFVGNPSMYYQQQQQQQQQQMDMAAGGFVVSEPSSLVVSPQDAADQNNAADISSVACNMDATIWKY
UniProt Q9FTY0: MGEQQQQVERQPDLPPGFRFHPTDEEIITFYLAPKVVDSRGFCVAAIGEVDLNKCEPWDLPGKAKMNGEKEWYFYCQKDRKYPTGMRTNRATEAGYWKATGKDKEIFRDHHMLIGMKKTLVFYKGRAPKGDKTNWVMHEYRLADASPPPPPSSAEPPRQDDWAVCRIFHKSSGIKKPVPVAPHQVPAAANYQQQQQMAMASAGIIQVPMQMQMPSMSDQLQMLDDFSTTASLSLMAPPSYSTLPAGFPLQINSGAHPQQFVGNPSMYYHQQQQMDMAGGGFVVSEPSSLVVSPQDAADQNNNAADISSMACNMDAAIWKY
UniProt Q7XWV4: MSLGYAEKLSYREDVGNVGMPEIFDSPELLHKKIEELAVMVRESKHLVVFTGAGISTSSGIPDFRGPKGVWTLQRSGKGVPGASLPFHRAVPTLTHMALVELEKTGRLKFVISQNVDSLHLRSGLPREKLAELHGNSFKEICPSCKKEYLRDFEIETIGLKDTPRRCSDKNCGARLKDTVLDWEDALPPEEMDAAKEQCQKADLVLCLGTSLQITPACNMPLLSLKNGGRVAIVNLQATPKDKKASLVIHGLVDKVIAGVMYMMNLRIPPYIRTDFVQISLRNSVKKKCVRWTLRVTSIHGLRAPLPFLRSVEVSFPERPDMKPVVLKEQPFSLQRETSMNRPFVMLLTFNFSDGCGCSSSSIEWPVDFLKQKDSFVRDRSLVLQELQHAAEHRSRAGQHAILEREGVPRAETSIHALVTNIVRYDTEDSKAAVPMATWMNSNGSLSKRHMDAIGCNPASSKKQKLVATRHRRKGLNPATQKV
UniProt Q6H8A9: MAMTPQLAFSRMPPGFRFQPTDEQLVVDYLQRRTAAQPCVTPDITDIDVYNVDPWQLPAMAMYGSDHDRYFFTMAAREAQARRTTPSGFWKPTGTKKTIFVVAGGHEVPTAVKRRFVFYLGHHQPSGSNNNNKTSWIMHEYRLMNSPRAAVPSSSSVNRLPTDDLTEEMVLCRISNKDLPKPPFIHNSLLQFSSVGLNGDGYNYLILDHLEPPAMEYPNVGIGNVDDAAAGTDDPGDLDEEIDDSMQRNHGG

The target in assay [1] is GST_ONAC026 (rice (Oryza sativa)) (UniProt Q5VNK1). Kind of assay: pull-down.
In assay [2] the target is GST_ONAC020 (rice (Oryza sativa)) (UniProt Q9FTY0). Kind of assay: pull-down.
In assay [3] the target is T1, OsTPL (rice (Oryza sativa)) (UniProt Q0J7U6).
T1 sequence: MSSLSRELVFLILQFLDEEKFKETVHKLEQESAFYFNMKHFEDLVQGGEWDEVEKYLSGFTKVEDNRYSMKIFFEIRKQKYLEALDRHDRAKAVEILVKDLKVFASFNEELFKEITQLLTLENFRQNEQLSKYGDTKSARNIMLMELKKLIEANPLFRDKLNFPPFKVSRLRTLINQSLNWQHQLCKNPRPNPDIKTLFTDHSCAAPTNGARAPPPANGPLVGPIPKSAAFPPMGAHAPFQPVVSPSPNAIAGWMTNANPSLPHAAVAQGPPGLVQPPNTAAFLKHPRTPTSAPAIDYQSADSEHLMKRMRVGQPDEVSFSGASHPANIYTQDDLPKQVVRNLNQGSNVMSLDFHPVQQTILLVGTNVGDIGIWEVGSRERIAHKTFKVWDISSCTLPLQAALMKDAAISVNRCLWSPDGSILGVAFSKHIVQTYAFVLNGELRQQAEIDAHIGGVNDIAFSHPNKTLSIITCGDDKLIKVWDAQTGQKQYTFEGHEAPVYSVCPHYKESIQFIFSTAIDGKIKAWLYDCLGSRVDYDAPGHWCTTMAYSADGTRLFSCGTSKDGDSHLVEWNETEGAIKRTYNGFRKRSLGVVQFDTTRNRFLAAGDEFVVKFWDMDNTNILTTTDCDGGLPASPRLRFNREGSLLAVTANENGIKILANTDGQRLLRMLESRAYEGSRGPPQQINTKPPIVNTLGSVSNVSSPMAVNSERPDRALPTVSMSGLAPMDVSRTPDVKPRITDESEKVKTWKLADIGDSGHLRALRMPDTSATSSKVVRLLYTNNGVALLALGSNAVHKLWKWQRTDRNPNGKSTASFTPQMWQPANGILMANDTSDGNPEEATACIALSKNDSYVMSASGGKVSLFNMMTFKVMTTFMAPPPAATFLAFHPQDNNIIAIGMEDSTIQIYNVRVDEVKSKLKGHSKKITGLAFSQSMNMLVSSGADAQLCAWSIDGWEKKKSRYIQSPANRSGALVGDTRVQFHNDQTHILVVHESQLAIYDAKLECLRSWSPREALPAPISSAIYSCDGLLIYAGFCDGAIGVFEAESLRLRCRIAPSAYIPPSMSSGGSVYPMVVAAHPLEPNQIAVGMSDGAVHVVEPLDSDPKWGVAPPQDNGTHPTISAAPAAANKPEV
Kind of assay: two-hybrid.

In assay [4] the target is SRT701 (rice (Oryza sativa)) (UniProt Q7XWV4). Kind of assay: two-hybrid.
Assay [5] concerns the target MBP_ONAC023 (rice (Oryza sativa)) (UniProt Q6H8A9). The experiment in a line: pull-down.
Assay [6] has as its target MBP_OsTPL (rice (Oryza sativa)) (UniProt Q0J7U6). The experiment in a line: pull-down.
The target in assay [7] is MBP_ZOS1-15 (rice (Oryza sativa)) (UniProt B7F136). Kind of assay: pull-down.
Assay [8] addresses MBP_ONAC026 (rice (Oryza sativa)) (UniProt Q5VNK1). Kind of assay: pull-down.
For assay [9], the target named is GST_ZOS1-15 (rice (Oryza sativa)) (UniProt B7F136). The experiment in a line: pull-down.
Assay [10] addresses T2, TPL_MYC (rice (Oryza sativa)) (UniProt Q0J7U6).
T2 sequence: T1 sequence
The experiment in a line: co-IP.

Consider MBP_ONAC023 (from UniProt Q6H8A9), for which the binding entry in assay [1] is recorded as “binds”.

MBP_ONAC026 (from UniProt Q5VNK1): in assay [2], the binding entry is reported as “binds”.

Turning to ZOS1-15 (from UniProt B7F136), the binding entry in assay [3] and in assay [4] was “binds” throughout.

In the case of GST_ONAC026 (from UniProt Q5VNK1), in [5], the binding entry is given as “binds”.

Regarding GST_ZOS1-15 (from UniProt B7F136), the binding entry in assay [6] and in [7] was “binds” throughout.

Consider GST_ONAC020 (from UniProt Q9FTY0), for which the binding entry in [8] was “binds”.

Consider MBP_ZOS1-15 (from UniProt B7F136), for which the binding result in [9] is “binds”.

Regarding YFP_ZOS1-15 (rice (Oryza sativa)), in [10], the binding result was “binds”.

Source of the values: article doi:10.1101/2024.07.15.603577.
